Some of the results follow. Further columns of the screen follow, without active or inactive calls. Most of these compounds were active or inconclusive in the main read-out, so they are no random draw. Words in brackets tell the shape of the fitted curve; partial curves, single points and poor fits give uncertain potencies.

The test is described as follows: qHTS Assay for Modulators of Lamin A Splicing. As to conditions: HeLa LMNA splicing GFP/RFP minigene ratio, 48 h. The procedure, abridged:
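S3 HeLa stable clones carrying a lamin A-EGFP splicing minigene plus DsRed2 were seeded at 600 cells/well in Opti-MEM with 2% FBS, pin-dosed and incubated 48 h at 37°C. Acumen cytometry (488 nm) gave the GFP/RFP total-intensity ratio.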

The mark [1] stands for this setting: measured here: RFP viability control channel.
Where [2] appears, read: measured here: GFP splicing reporter channel.

As usually defined, the AC50 is the midpoint of the concentration-response curve, whichever way the signal moves. On to `CCn1c(=O)c(C(=O)CN2CCN(S(=O)(=O)c3ccc(C)cc3C)CC2)c(N)n(Cc2ccccc2)c1=O`, for which the AC50 under setting [1] is 15.8 µM [rising, single point].
As to `Cc1cccc(-n2nc(CC#N)c(C#N)c2N)c1`, the AC50 under setting [2] was 0.0501 µM [rising, full curve] and the AC50 under setting [1] was 5.01 µM [rising, single point].
With `S=C(Nc1ccc2nsnc2c1)N1CCCCC1`, the AC50 was 10 µM [rising, partial curve] under setting [2] and 20 µM [rising, single point] under setting [1].
Regarding `C=CCN1C=C2C(=O)C(C)(OC(=O)c3ccc(OC)cc3)C(=O)C(c3ccco3)=C2C=C1CCCC` (configuration not stated), the AC50 under setting [1] was 3.98 µM [rising, single point].
`COc1ccc(Nc2nc(N3CCCCC3)c3ccccc3n2)cc1`: the AC50 is 35.5 µM [falling, single point] under setting [2] and 28.2 µM [falling, partial curve] under setting [1].
Consider `CCOc1ccc(OC(=O)c2c(-c3ccccc3Cl)noc2C)cc1`, for which the AC50 under setting [2] is 0.224 µM [falling, full curve, poor fit].
Regarding `CCN(C(=O)C1CCCN(c2ncnc3c2nc2n3CCCCC2)C1)c1cccc(C)c1` (configuration not stated), the AC50 under setting [1] was 0.02 µM [falling, full curve, poor fit].
On the same count and under the same terms, the value for `O=[N+]([O-])c1ccc(Oc2cccc(Br)c2)c2ccncc12` was 35.5 µM [rising, single point].
Turning to `Cc1ccc(NC(=O)CN2C(=O)c3ccccc3Sc3ccc(C(=O)N4CCOCC4)cc32)c(Cl)c1`, the AC50 under setting [2] is 0.00794 µM [falling, full curve, poor fit].
Take `CC(=O)c1cc2c(cc1NS(=O)(=O)c1ccc3c(c1)OCCO3)OCO2`: under setting [1], the AC50 was 12.6 µM [rising, single point].
The same measure, in the same setting: the figure for `Cc1cccc(C(=O)Nc2nnc(-c3ccco3)o2)c1` is 20 µM [rising, single point].
As for `Cc1nn(-c2ccccc2Cl)c(Cl)c1/C=N/Nc1nc2ccccc2s1`, the AC50 under setting [1] was 2 µM [rising, partial curve, poor fit].
As to `Cc1conc1NC(c1cccs1)c1ccc2cccnc2c1O` (configuration not stated), the AC50 under setting [1] is 31.6 µM [rising, single point].
Regarding `Cn1c(SCC(=O)NC2CCCC2)nnc1-c1ccncc1`, under setting [2], the AC50 is 0.0251 µM [rising, full curve, poor fit].
With `CC(=O)Oc1ccc2ccccc2c1C(NC(=O)Cc1ccccc1)c1ccc(Cl)cc1` (configuration not stated), the AC50 is, setting by setting: under setting [2], 11.2 µM [falling, partial curve]; under setting [1], 17.8 µM [falling, partial curve].
As to `COc1cc(OC)cc(-c2nc3ccccc3c(=O)n2OC(=O)c2ccc(C)c(C)c2)c1`, the AC50 reads like this: under setting [2], 15.8 µM [rising, partial curve, poor fit]; under setting [1], 17.8 µM [rising, partial curve].
As for `COc1cc(/C=C/C(=O)Nc2ccc(N3CCCCC3)c(S(=O)(=O)Nc3ccccc3Cl)c2)cc(OC)c1OC`, the AC50 under setting [1] was 4.47 µM [rising, partial curve].
Turning to `CCS(=O)(=O)Nc1ccc(Cc2ccc(NS(=O)(=O)CC)cc2)cc1`, the half-maximal activity concentration (AC50) under setting [1] was 15.8 µM [rising, single point].
As for `CC(c1ccco1)N(C(=O)c1ccccc1NS(=O)(=O)c1ccc(Cl)cc1)c1ccccn1` (configuration not stated), under setting [1], the AC50 was 31.6 µM [rising, single point].
In the case of `CC(C)(C)NC[C@@H](O)c1ccc(O)c(CO)n1`, the AC50 under setting [2] was 0.355 µM [falling, partial curve, poor fit] and the AC50 under setting [1] was 0.501 µM [falling, partial curve].
As to `Cc1ccc(-c2nc3n(n2)Cc2ccccc2-3)cc1`, under setting [1], the half-maximal activity concentration (AC50) was 35.5 µM [rising, single point].
On the same count and under the same terms, the value for `CC(Sc1nnc(-c2ccccc2)c(-c2ccccc2)n1)C(=O)Nc1ncc(Cl)cc1Cl` (configuration not stated) was 11.2 µM [rising, partial curve].
Take `COc1ccc(N2C(=O)/C(=C\c3ccco3)N=C2SCC(=O)NC(C)(C)C)cc1Cl`: under setting [1], the AC50 was 12.6 µM [rising, partial curve].
In the case of `CCc1nnc(NC(=O)c2ccc(Cl)c(S(=O)(=O)N3CCc4ccccc43)c2)s1`, the AC50 under setting [1] was 7.08 µM [rising, full curve].
As to `CC(C)CNC(=O)c1cnn2c(C(F)(F)F)cc(C(F)(F)F)nc12`, the half-maximal activity concentration (AC50) is, setting by setting: under setting [2], 25.1 µM [falling, single point]; under setting [1], 14.1 µM [falling, single point].
As to `COc1cccc(-c2csc(N3CCN(C(=O)Nc4ccc(Cl)cc4)CC3)n2)c1`, the AC50 under setting [2] is 0.2 µM [falling, partial curve] and the AC50 under setting [1] is 4.47 µM [falling, single point].
For `COC(=O)c1c(N)sc(Cc2ccccc2)c1C`, the AC50 reads like this: under setting [2], 5.62 µM [falling, partial curve, poor fit]; under setting [1], 4.47 µM [falling, partial curve, poor fit].
Consider `Oc1ccc(/C=N/NC(=S)NCCN2CCOCC2)c(O)c1`, for which the AC50 under setting [1] is 5.62 µM [falling, single point].
Turning to `COc1ccc(NC(=O)Nc2nnc(C(C)C)s2)cc1`, the AC50 under setting [2] was 35.5 µM [rising, single point] and the AC50 under setting [1] was 35.5 µM [rising, single point].
Regarding `COc1ccc(NC(=O)CN2CCN(Cc3ccc4c(c3)OCO4)CC2)cc1OC`, the AC50 was 3.55 µM [falling, single point] under setting [2] and 5.01 µM [falling, single point] under setting [1].
`Cc1cc(N2CCCC2)nc2ccc(NC(=S)NCCCN3CCC(C)CC3)cc12`: the AC50 under setting [1] was 2.51 µM [rising, partial curve, poor fit].
Consider `CCS(=O)(=O)N1N=C(c2cccc(NS(C)(=O)=O)c2)CC1c1ccc(C)cc1` (configuration not stated), for which the AC50 under setting [2] was 1.12 µM [rising, partial curve] and the AC50 under setting [1] is 0.891 µM [rising, partial curve].
Consider `CC(=O)N1CCN(CC(=O)Nc2cccc(S(=O)(=O)N3CCCCCC3)c2)CC1`, for which, under setting [2], the AC50 was 0.00158 µM [falling, full curve, poor fit].
Consider `CC(C)CSc1nc(N2CCOCC2)c2c(c1C#N)CC(C)(C)SC2`, for which, under setting [1], the AC50 was 35.5 µM [rising, single point].
With `CC1(C)CC(=O)C2=C(C1)Oc1ncn(CCCn3ccnc3)c(=N)c1C2c1ccccc1` (configuration not stated), the AC50 under setting [1] is 11.2 µM [rising, single point].

(Values after PubChem BioAssay AID1487 (National Center for Advancing Translational Sciences (NCATS), 2009).)
